These are yes or no findings as the source states them, for the method shown. Binding seen in cells or lysates may run through a third protein. Binding calls can cover weak binding; strength is not graded here. Where a sequence is shown, tags or fusion partners need not be part of it.

B1: AtPIP2;7 (luciferase complementation fusion) (protein, UniProt P93004 1-280)
chain: MSKEVSEEGKTHHGKDYVDPPPAPLLDMGELKSWSFYRALIAEFIATLLFLYVTVATVIGHKKQTGPCDGVGLLGIAWAFGGMIFVLVYCTAGISGGHINPAVTFGLFLARKVSLVRALGYMIAQCLGAICGVGFVKAFMKTPYNTLGGGANTVADGYSKGTALGAEIIGTFVLVYTVFSATDPKRSARDSHIPVLAPLPIGFAVFMVHLATIPITGTGINPARSFGAAVIYNNEKAWDDQWIFWVGPFLGALAAAAYHQYILRASAIKALGSFRSNATN
B2: AtPIP2;5 (luciferase complementation fusion) (protein, UniProt Q9SV31 1-286)
chain: MTKEVVGDKRSFSGKDYQDPPPEPLFDATELGKWSFYRALIAEFIATLLFLYVTIMTVIGYKSQTDPALNPDQCTGVGVLGIAWAFGGMIFILVYCTAGISGGHINPAVTFGLLLARKVTLVRAVMYMVAQCLGAICGVALVKAFQSAYFTRYGGGANGLSDGYSIGTGVAAEIIGTFVLVYTVFSATDPKRSARDSHVPVLAPLPIGFAVFIVHLATIPITGTGINPARSLGAAIIYNKDKAWDHHWIFWVGPFAGAAIAAFYHQFVLRAGAIKALGSFRSQPHV
B3: AtPIP2;4 (luciferase complementation fusion) (protein, UniProt Q9FF53 1-291)
chain: MAKDLDVNESGPPAARDYKDPPPAPFFDMEELRKWPLYRAVIAEFVATLLFLYVSILTVIGYKAQTDATAGGVDCGGVGILGIAWAFGGMIFVLVYCTAGISGGHINPAVTVGLFLARKVSLVRTVLYIVAQCLGAICGCGFVKAFQSSYYTRYGGGANELADGYNKGTGLGAEIIGTFVLVYTVFSATDPKRNARDSHVPVLAPLPIGFAVFMVHLATIPITGTGINPARSFGAAVIYNNEKAWDDQWIFWVGPMIGAAAAAFYHQFILRAAAIKALGSFGSFGSFRSFA
B4: AtPIP2;8 (luciferase complementation fusion) (protein, UniProt Q9ZVX8 1-278)
chain: MSKEVSEEGRHGKDYVDPPPAPLLDMAELKLWSFYRAIIAEFIATLLFLYVTVATVIGHKNQTGPCGGVGLLGIAWAFGGMIFVLVYCTAGISGGHINPAVTFGLFLARKVSLPRAVAYMVAQCLGAICGVGLVKAFMMTPYKRLGGGANTVADGYSTGTALGAEIIGTFVLVYTVFSATDPKRSARDSHVPVLAPLPIGFAVFMVHLATIPITGTGINPARSFGAAVIYNNEKAWDDHWIFWVGPFVGALAAAAYHQYILRAAAIKALASFRSNPTN

The target of this test is cLUC-CRN78 (Phytophthora sojae). Description: split reporter; luciferase complementation in N. benthamiana leaves (nLUC and cLUC fusions, Agrobacterium infiltration); leaf discs after 2 days, 1 mM luciferin, luminescence in a microplate reader.
For the molecule B1, the binding entry is on record as “binds”.

With B2, the binding entry is on record as “binds”.

Regarding B3, the binding entry is given as “binds”.

Turning to B4, the binding entry is given as “binds”.

These data come from article PMC7990189.
